Test [1] deals with T1, Utp12p, full-length (co-expressed in E. coli) (S. cerevisiae) (UniProt Q12220).
T1 sequence: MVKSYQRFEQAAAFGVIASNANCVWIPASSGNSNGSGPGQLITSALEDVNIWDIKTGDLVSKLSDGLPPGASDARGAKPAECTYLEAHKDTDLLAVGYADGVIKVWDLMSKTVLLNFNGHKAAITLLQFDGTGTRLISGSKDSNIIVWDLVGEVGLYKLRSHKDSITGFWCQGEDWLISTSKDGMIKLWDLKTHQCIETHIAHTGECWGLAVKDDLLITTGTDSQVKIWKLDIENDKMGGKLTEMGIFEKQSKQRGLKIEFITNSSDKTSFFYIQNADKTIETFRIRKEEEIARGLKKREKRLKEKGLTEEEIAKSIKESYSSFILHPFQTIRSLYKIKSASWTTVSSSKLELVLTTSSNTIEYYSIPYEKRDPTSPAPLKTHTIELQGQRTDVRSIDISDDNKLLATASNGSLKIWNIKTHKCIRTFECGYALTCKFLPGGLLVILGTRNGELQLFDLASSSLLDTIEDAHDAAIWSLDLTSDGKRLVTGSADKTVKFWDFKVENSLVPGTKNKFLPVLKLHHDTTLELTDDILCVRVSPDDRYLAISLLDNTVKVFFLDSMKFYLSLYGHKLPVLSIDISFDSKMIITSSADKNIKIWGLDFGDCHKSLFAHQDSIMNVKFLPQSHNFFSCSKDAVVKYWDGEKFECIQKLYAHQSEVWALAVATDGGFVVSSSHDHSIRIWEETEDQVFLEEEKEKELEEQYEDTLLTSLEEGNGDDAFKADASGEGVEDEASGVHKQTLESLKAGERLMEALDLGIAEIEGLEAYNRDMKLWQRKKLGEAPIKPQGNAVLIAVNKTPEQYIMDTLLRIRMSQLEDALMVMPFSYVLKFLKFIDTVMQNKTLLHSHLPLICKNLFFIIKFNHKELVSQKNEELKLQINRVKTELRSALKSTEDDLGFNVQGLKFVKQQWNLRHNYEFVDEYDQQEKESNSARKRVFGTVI
The experiment in a line: pull-down; pairwise co-expression in E. coli Rosetta2, N-terminal His tag on one partner; cleared lysate on cobalt-affinity resin 30 min at 4 °C in 1.5x PBS, 1 mM magnesium acetate, 0.1% NP-40, 20 mM imidazole, 10% glycerol; SDS-PAGE, Coomassie.

Test [2] deals with T1, Utp12p, full-length (co-expressed in E. coli) (S. cerevisiae). The experiment in a line: pull-down; co-expression of four proteins in E. coli from three plasmids (bi-cistronic UTP12-UTP13 in modified pET-28b, PWP2 and UTP21 constructs in modified pET-15b and pCDF); cobalt-affinity pull-down, SDS-PAGE, Coomassie; bands confirmed by mass spectrometry.

No constants are given. Whether binding was seen depends on the method and setting. Binding seen in cells or lysates may run through a third protein. Some results given as binding are weak or reduced against the parent protein; the word gives no strength.

B1: Utp13p, full-length (co-expressed in E. coli) (protein, UniProt Q05946 1-817)
chain: MDLKTSYKGISLNPIYAGSSAVATVSENGKILATPVLDEINIIDLTPGSRKILHKISNEDEQEITALKLTPDGQYLTYVSQAQLLKIFHLKTGKVVRSMKISSPSYILDADSTSTLLAVGGTDGSIIVVDIENGYITHSFKGHGGTISSLKFYGQLNSKIWLLASGDTNGMVKVWDLVKRKCLHTLQEHTSAVRGLDIIEVPDNDEPSLNLLSGGRDDIINLWDFNMKKKCKLLKTLPVNQQVESCGFLKDGDGKRIIYTAGGDAIFQLIDSESGSVLKRTNKPIEELFIIGVLPILSNSQMFLVLSDQTLQLINVEEDLKNDEDTIQVTSSIAGNHGIIADMRYVGPELNKLALATNSPSLRIIPVPDLSGPEASLPLDVEIYEGHEDLLNSLDATEDGLWIATASKDNTAIVWRYNENSCKFDIYAKYIGHSAAVTAVGLPNIVSKGYPEFLLTASNDLTIKKWIIPKPTASMDVQIIKVSEYTRHAHEKDINALSVSPNDSIFATASYDKTCKIWNLENGELEATLANHKRGLWDVSFCQYDKLLATSSGDKTVKIWSLDTFSVMKTLEGHTNAVQRCSFINKQKQLISCGADGLIKIWDCSSGECLKTLDGHNNRLWALSTMNDGDMIVSADADGVFQFWKDCTEQEIEEEQEKAKLQVEQEQSLQNYMSKGDWTNAFLLAMTLDHPMRLFNVLKRALGESRSRQDTEEGKIEVIFNEELDQAISILNDEQLILLMKRCRDWNTNAKTHTIAQRTIRCILMHHNIAKLSEIPGMVKIVDAIIPYTQRHFTRVDNLVEQSYILDYALVEMDKLF
Take B1: the binding entry in test [1] and in test [2] was “binds” throughout.

Values taken from paper PMC5466602.
